Source: PubChem BioAssay AID1347423 (Functional Genomics Laboratory (NCATS/FGL), 2020)
About 210 (0.4%) of roughly 52,000 sequences were called active.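 The calls were made as follows: active = gene whose silencing raises cell survival under the drug, median off-target-corrected z-score across its silencing RNAs 2 or more; inactive = the rest.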 The list shows a part of the results.

Experiment: Resistance to Poly (ADP-Ribose) Polymerase inhibitor: Gene Identification via Genome-wide siRNA Screen
Details: mouse BRCA2 R2336H ES cells, olaparib, CellTiter-Glo viability; hits give high values
Procedure, shortened: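 Mouse BRCA2 R2336H ES cells were reverse-transfected with siRNA (20 nM final), treated at 48 h with 500 nM olaparib, and read by CellTiter-Glo after 72 h. Scores: MAD-based z per siRNA, median per gene, seed off-target correction.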

Row | Sequence | z-score
1 | GGAAAGCUUGGACAUUAAGTT against B130003F20Rik | inactive: 0.0915
2 | GGGAUUUGGUCAGCUAACCTT against Acp2 | inactive: 2.58
3 | GAAAACUCAAACAGCAUAUTT against V1ri10 | inactive: -0.036
4 | GCUAGUUCUCAUCAGCUACTT against 8030463A06Rik | inactive: 1.92
5 | GGUUAAUAUUAGCAUCGUCTT against Gm779 | inactive: 0.219
6 | GGUUUUCAAUGGAGAAGGATT against Zfpn1a2 | inactive: -1.29
7 | GGGAAUCUAAAUUAUUCUGTT against 1200003O06Rik | inactive: 2.08
8 | GGAGAAAUAUGACAUGGAGTT against Tnni2 | inactive: -0.218
9 | GGAACUCCAUCUUCUGUAATT against Olfr1491 | inactive: -0.157
10 | GCCGCAUUGAGUACAUGGUTT against Ap1m1 | inactive: 0.652
11 | GCGGCAUUGUCUACAUCCATT against Emp3 | inactive: -0.685
12 | GGGUAACAGUGGUGAACCUTT against Col1a1 | inactive: -1.52
13 | CCUGUAUUAAACAGGGUUCTT against 6330516O17Rik | inactive: -2.06
14 | GCUUAAGAGAUUCAAAUUGTT against Olfr1317 | inactive: 0.0599
15 | GGCCAGUACGAAUGCUCCUTT against Dlk1 | inactive: -1.78
16 | GCAAUAAUGGCAAGAAUGGTT against AJ430384 | inactive: -1.27
17 | GGCGGAUUCAACAGACCUCTT against 2610209M04Rik | inactive: -1.92
18 | GGGUAUGACCGGUAUUACATT against Atp5j2 | inactive: 0.11
19 | CCGAUUAAAAGAGUGUUUGTT against Nudt8 | inactive: 0.145
20 | GGUGGAUGGAUCACUGAGUTT against B230325K18Rik | inactive: -1.37
21 | GGACCUUGGCUUUAAGAUGTT against Matn1 | inactive: 0.749
22 | GGUGGUAUUCUGUGGACCATT against Mrpl48 | inactive: -0.927
23 | GGUGGUGUUUCUGAACCCATT against Capn5 | inactive: -0.00609
24 | GCAAACUGCCCUCUUUGUGTT against Olfr1024 | inactive: -1.46
25 | CCGACUGUUAAAGUGGUGUTT against Arih1 | inactive: -0.239
26 | GGAAAUGCUACUGCUUGGATT against 1700030K09Rik | inactive: -1.79

Row | Sequence | z-score
27 | GCUGAUACACAGACAUACCTT against Erh | inactive: -2.28
28 | GGAAGGUGAUGAAUCAGCCTT against 2310058J06Rik | inactive: 0.591
29 | GGGACUUUAAAAAAGACUCTT against Olfr1366 | inactive: 0.203
30 | GGUCUUCGCCACAUGGAAATT against Crkl | inactive: 1.02
31 | GGCUCUUGUUGAUUGGGCUTT against Thsd6 | inactive: -0.175
32 | CCAUUUAAGUGUGUGUUAATT against Rbmx | inactive: 1.08
33 | GCAAGUAUUAAGUAUGACGTT against Vps13c | inactive: 0.194
34 | CCCUCAUUGUAACCUUAACTT against Olfr792 | inactive: -0.245
35 | GGCACAUGAUCCUUAAUUUTT against Pfkfb3 | inactive: 2.32
36 | GGUUCUGACCACCUACAUATT against Htr3a | inactive: -0.97
37 | GGAGAUCAGUCCUACAAAGTT against Ralbp1 | inactive: -0.493
38 | GAUCCUUGACUACAUCUAUTT against Accn4 | inactive: 1.27
39 | GGUGUGGGUGGGAAAAGAATT against 2610027C15Rik | inactive: -1.77
40 | GGAUCAUCACUACUACAAUTT against 4932415M13 | inactive: 0.158
41 | GGAAGUGAUCCUUAAAAGATT against Ebf1 | inactive: 0.568
42 | CCAUCAAUUGGAAAUCUUUTT against Tnn | inactive: 0.698
43 | GGAAAUGUGUCCUUGACCATT against Timd2 | inactive: -0.0731
44 | GGAUCCUAGUGAUGAUAAUTT against Styx | inactive: -0.857
45 | GGAACAUAUGCUCAGAAGATT against 1110031B11Rik | inactive: 0.034
46 | CGGCAUGCUGUGGAAAAAGTT against Btrc | inactive: -0.222
47 | GGACAAGGCCAAGCUAUAATT against Cntnap2 | inactive: -2.01
48 | GCUAAAUUGUAUCCCUUCUTT against Pou2af1 | inactive: -0.145
49 | GCGUAAAAUUUGGUGCAACTT against 4930452B06Rik | inactive: 3.01
50 | GGUACACUGGAUUUUCUGGTT against Slc4a1 | inactive: -0.254
51 | GGCUUAUCUAACCAAGUACTT against Prdm4 | inactive: 0.592
52 | CCUACUAUAUAUGUGAUGCTT against Jrk | inactive: 1.98

An excerpt of these results, with each value named.
CCAUUUAAGUGUGUGUUAATT against Rbmx
  z-score: inactive: 1.08
GCAAGUAUUAAGUAUGACGTT against Vps13c
  z-score: inactive: 0.194

Copied from above: entries 48 to 52
Row | Sequence | z-score
48 | GCUAAAUUGUAUCCCUUCUTT against Pou2af1 | inactive: -0.145
49 | GCGUAAAAUUUGGUGCAACTT against 4930452B06Rik | inactive: 3.01
50 | GGUACACUGGAUUUUCUGGTT against Slc4a1 | inactive: -0.254
51 | GGCUUAUCUAACCAAGUACTT against Prdm4 | inactive: 0.592
52 | CCUACUAUAUAUGUGAUGCTT against Jrk | inactive: 1.98

Later entries

Row | Sequence | z-score
53 | GGGAUUUUACAGACUUAAGTT against Tm4sf1 | inactive: -0.628
54 | GGUGCUGGACAAAUUGAGATT against E330016A19Rik | inactive: 0.665
55 | CCAGUGAAUGACUUCACUCTT against Rpp21 | inactive: -0.065
56 | CGGGAAAUUUCUAUUGGACTT against Akr1c12 | inactive: 0.0337
57 | CCUAUAAUGCUUACAGGAUTT against Olfr477 | inactive: -1.02
58 | GCUCUAUUGUCUGGUAUUGTT against AJ543404 | inactive: -0.868
59 | GGAAGUAGAUUUGAAGUUGTT against 1700017G21Rik | inactive: 0.871
60 | GGUACACAUAACACAGAUATT against Rpl23 | inactive: 0.38
61 | GGAACAUUGAUGGAAUUGGTT against Sec61a2 | inactive: 0.0933
62 | GGCUUAAACGAUUUUUCCATT against Elp3 | inactive: 0.439
63 | GCUAAUUACAGCUUCUCCCTT against Yars | inactive: 3.02
64 | GGCUGAGUUUAUUUUUGAGTT against D930036F22Rik | inactive: -0.183
65 | GGUGAAAGAUGCCUCUAAGTT against Olfr1038 | inactive: -0.231
66 | CGAUUACAUCCUUUUUGACTT against A930018B01Rik | inactive: 0.363
67 | CCCAAUCAGCAUUUGCUCUTT against H2-M10.3 | inactive: 1.25
68 | GGCAUCAAUCAUGAGCAUUTT against Chrna4 | inactive: 0.103
69 | GGUCACGGAGAAACUAAAGTT against 2700017M01Rik | inactive: 0.727
70 | GGAAAGGACUGGAAGAAUUTT against Mrpl47 | inactive: 0.315
71 | CCCUGUAAGGACCAAUAAATT against Dact1 | inactive: -0.0457
72 | CGGAGGAGAAAUCUUGUAATT against 6820416H06Rik | inactive: -0.504
73 | GCAUAUCCUAAACACUGUUTT against E030024M05Rik | inactive: -0.433
74 | GGACCAGUUGUAAAUGUUATT against Hoxd9 | inactive: -0.318
75 | GGUGGCAAUGACAACUACUTT against Rnase4 | inactive: -0.634
76 | GGACAAAAUUGAACACAAGTT against Pogz | inactive: 0.536
77 | GGUUUUCAGUACAUCCUGGTT against Cryba4 | inactive: 1.34
78 | UCCCAGAAUAAGAGUGAGGTT against Aplra1 | inactive: 0.702

Row | Sequence | z-score
79 | GGGUGAUAGCUCCUAUGUGTT against A530023G15Rik | inactive: 0.569
80 | GGAUCUGCACACCUAUGGGTT against Prok2 | inactive: -0.878
81 | GGUCCACCUCAACAAGCUATT against Zfp536 | inactive: 0.942
82 | GGUAGAAGCCAAGAUGAGCTT against Abi3 | inactive: 0.796
83 | GCCCUUCGCUUAGUCAGAATT against 4921505C17Rik | inactive: -0.144
84 | GGAAGUGGCUUUUUAUCAGTT against Arhgap6 | inactive: 0.0376
85 | CAUUGUCAUUCUAGUUGCATT against Olfr1251 | inactive: 1.56
86 | GGAGAUUGACCUGGUCAACTT against Cav1 | inactive: -0.0906
87 | GGUUUAUACUCAUAACCUGTT against 2510003E04Rik | inactive: 1.91
88 | GGGUCAGGAGGAAAAAAAATT against Reps1 | inactive: 0.869
89 | GGAGUUUGUUAAUUUCGCATT against Rap2ip | inactive: 0.0748
90 | GGGACAAUGCUGUCAUUGATT against Noxa1 | inactive: -1.4
91 | GCCCGUUCCACUUUUGGAGTT against Nedd1 | inactive: 0.715
92 | GGAGACGAGUCACAUCUCATT against Cables2 | inactive: 0.578
93 | GGAACAACUUGAUACCUCUTT against Trim44 | inactive: -1.48
94 | GGAGCUGCUGUUAAUUCCATT against Col5a3 | inactive: -0.383
95 | CCAUAGGAAUGCAUUUGAGTT against Arhgef7 | inactive: -1.66
96 | CCUUGAAGUAUCAGGUGGATT against Sytl3 | inactive: -0.232
97 | CCUUUGUCCUUUUGUUGUGTT against Defb15 | inactive: 0.748
98 | CCACGUAGGUAAGUGUAGGTT against AI314976 | inactive: 0.0873
99 | CCUCCAGUUCAGAAUUCUATT against Surf4 | inactive: -0.141
100 | GCCCUUACCAUGUGUCCUUTT against Olfr1346 | inactive: -0.663
101 | GGCCUUGCUUCAUAUAAGGTT against Myst4 | inactive: -0.139
102 | GGGUAGUGGUGAGCAAGACTT against Wnt10b | inactive: -0.39
103 | CCAACGUGCUGAAUUAUUATT against D230002A01Rik | inactive: -0.183
